Laboratory results reported in patent publication US12337042B2, “Structural optimization method to improve the theranostic performance of peptide receptor-targeted radionuclide therapy for cancers” (University of Iowa Research Foundation, priority 2020, dated 2025).
Part of at least one peptide drawing is inferred or uncertain, most often the ends.

Tested on: AR42J tumor
Format: in vivo, mouse
Conditions: co-injection of excess unlabeled peptide (10 nmol PSC-PEG2-TOC), 3 h post-injection

C[C@@H](O)[C@@H]1NC(=O)[C@H](CCCCN)NC(=O)[C@@H](Cc2c[nH]c3ccccc23)NC(=O)[C@H](Cc2ccc(O)cc2)NC(=O)[C@@H](NC(=O)[C@@H](Cc2ccccc2)NC(=O)CCOCCOCCNC(=O)CN2CCN(CC(=O)O)CCN(CC(N)=O)CCN(CC(=O)O)CC2)CSSC[C@@H](C(=O)N[C@H](CO)[C@@H](C)O)NC1=O [^203Pb-PSC-PEG2-TOC, metal not drawn]
specificity of tumor binding (tumor blocking): specific tumor binding
